Test results from doi:10.1101/2024.02.19.580982.
No constants are given. Whether binding was seen depends on the method and setting. Some binding calls cover weakened binding; strength is not graded here.

The chains behind the UniProt entries cited, without tags or fusion partners.
UniProt Q9HC29: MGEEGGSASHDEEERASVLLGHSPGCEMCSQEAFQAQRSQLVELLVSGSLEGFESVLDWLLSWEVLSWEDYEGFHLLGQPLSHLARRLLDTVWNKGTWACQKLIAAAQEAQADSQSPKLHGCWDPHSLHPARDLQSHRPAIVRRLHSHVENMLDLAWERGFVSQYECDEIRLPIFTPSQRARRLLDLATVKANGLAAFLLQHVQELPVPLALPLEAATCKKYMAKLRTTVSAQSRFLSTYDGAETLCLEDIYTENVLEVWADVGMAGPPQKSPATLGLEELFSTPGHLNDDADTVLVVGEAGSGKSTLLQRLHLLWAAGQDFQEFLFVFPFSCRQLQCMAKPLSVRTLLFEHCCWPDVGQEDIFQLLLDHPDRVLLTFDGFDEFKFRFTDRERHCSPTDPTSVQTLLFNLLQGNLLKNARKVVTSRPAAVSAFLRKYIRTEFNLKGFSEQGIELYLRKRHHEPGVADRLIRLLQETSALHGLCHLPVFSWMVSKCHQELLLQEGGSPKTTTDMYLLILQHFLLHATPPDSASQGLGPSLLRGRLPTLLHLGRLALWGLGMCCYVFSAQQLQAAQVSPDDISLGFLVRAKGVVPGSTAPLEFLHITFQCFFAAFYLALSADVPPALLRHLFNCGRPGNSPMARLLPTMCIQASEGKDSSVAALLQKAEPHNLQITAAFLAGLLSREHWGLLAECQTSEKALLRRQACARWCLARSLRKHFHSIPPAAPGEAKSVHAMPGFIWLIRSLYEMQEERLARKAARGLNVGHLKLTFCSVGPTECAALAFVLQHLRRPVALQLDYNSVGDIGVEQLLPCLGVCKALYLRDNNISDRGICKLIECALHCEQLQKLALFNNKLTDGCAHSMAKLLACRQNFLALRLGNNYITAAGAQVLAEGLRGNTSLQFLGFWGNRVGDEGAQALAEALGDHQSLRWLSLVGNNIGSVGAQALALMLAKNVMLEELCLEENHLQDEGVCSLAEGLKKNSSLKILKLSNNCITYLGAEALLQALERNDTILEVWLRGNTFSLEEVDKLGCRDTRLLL

Target: HA-tagged hNOD2 (hNOD2-HA) (human) (UniProt Q9HC29)
Assay: native gel or EMSA

Question: For “HA-tagged hNOD2 (hNOD2-HA) (from UniProt Q9HC29 1-1040)”, which binding is on record?
Answer: binds
